# From the supplement of paper PMC8728848
# This is one part of the list.
# Legend:
# Assay in all cases: glycan array binding signal (z-score within array); higher = stronger binding
# Conditions in all cases: glycan notation: IUPAC condensed, linker removed
# [1] = molecular target: Gal(b1-4)GlcNAc(b1-2)Man(a1-6)[Man(a1-3)]Man(b1-4)GlcNAc(b1-4)GlcNAc
# In short: (§1)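 From the Consortium for Functional Glycomics database, 3228 arrays were curated, keeping only those whose protein sequence was available. Binding is given as a within-array Z-score averaged across arrays sharing a protein sequence and across linkers. Negative Z-scores can be read as non-binding.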
# [2] = molecular target: Gal(b1-4)GlcNAc(b1-2)[Gal(b1-4)GlcNAc(b1-4)]Man(a1-3)[Gal(b1-4)GlcNAc(b1-2)Man(a1-6)]Man(b1-4)GlcNAc(b1-4)GlcNAc
# In short: as §1
# [3] = molecular target: Gal(b1-4)GlcNAc(b1-2)[Gal(b1-4)GlcNAc(b1-4)]Man(a1-3)[Gal(b1-4)GlcNAc(b1-2)[Gal(b1-4)GlcNAc(b1-6)]Man(a1-6)]Man(b1-4)GlcNAc(b1-4)GlcNAc
# In short: as §1
# [4] = molecular target: Gal(b1-4)GlcNAc(b1-2)[Gal(b1-4)GlcNAc(b1-4)]Man(a1-3)[GlcNAc(b1-4)][Gal(b1-4)GlcNAc(b1-2)Man(a1-6)]Man(b1-4)GlcNAc(b1-4)GlcNAc
# In short: as §1
# [5] = molecular target: Gal(b1-4)GlcNAc(b1-2)[Gal(b1-4)GlcNAc(b1-4)]Man(a1-3)[GlcNAc(b1-4)][Gal(b1-4)GlcNAc(b1-2)[Gal(b1-4)GlcNAc(b1-6)]Man(a1-6)]Man(b1-4)GlcNAc(b1-4)GlcNAc
# In short: as §1
# [6] = molecular target: Gal(b1-4)GlcNAc(b1-2)[Gal(b1-4)GlcNAc(b1-6)]Man(a1-6)[Gal(b1-4)GlcNAc(b1-2)Man(a1-3)]Man(b1-4)GlcNAc(b1-4)GlcNAc
# In short: as §1
# [7] = molecular target: Gal(b1-4)GlcNAc(b1-2)[Gal(b1-4)GlcNAc(b1-6)]Man(a1-6)[Gal(b1-4)GlcNAc(b1-2)Man(a1-3)]Man(b1-4)GlcNAc(b1-4)[Fuc(a1-6)]GlcNAc
# In short: as §1
# [8] = molecular target: Gal(b1-4)GlcNAc(b1-2)[Gal(b1-4)GlcNAc(b1-6)]Man(a1-6)[GlcNAc(b1-4)][Gal(b1-4)GlcNAc(b1-2)Man(a1-3)]Man(b1-4)GlcNAc(b1-4)GlcNAc
# In short: as §1
# [9] = molecular target: Gal(b1-4)GlcNAc(b1-2)[Gal(b1-4)GlcNAc(b1-6)]Man(a1-6)[GlcNAc(b1-4)][Gal(b1-4)GlcNAc(b1-2)[Gal(b1-4)GlcNAc(b1-4)]Man(a1-3)]Man(b1-4)GlcNAc(b1-4)[Fuc(a1-6)]GlcNAc
# In short: as §1
# [10] = molecular target: Gal(b1-4)GlcNAc(b1-3)Gal(b1-3)GalNAc
# In short: as §1
# [11] = molecular target: Gal(b1-4)GlcNAc(b1-3)Gal(b1-3)GlcNAc
# In short: as §1
# [12] = molecular target: Gal(b1-4)GlcNAc(b1-3)Gal(b1-4)Glc
# In short: as §1
# [13] = molecular target: Gal(b1-4)GlcNAc(b1-3)Gal(b1-4)GlcNAc
# In short: as §1
# [14] = molecular target: Gal(b1-4)GlcNAc(b1-3)Gal(b1-4)GlcNAc(b1-2)Man(a1-3)[Gal(b1-4)GlcNAc(b1-3)Gal(b1-4)GlcNAc(b1-2)Man(a1-6)]Man(b1-4)GlcNAc(b1-4)GlcNAc
# In short: as §1
# [15] = molecular target: Gal(b1-4)GlcNAc(b1-3)Gal(b1-4)GlcNAc(b1-2)Man(a1-3)[Gal(b1-4)GlcNAc(b1-3)Gal(b1-4)GlcNAc(b1-2)Man(a1-6)]Man(b1-4)GlcNAc(b1-4)[Fuc(a1-6)]GlcNAc
# In short: as §1
# [16] = molecular target: Gal(b1-4)GlcNAc(b1-3)Gal(b1-4)GlcNAc(b1-2)[Gal(b1-4)GlcNAc(b1-3)Gal(b1-4)GlcNAc(b1-6)]Man(a1-6)[Gal(b1-4)GlcNAc(b1-3)Gal(b1-4)GlcNAc(b1-2)Man(a1-3)]Man(b1-4)GlcNAc(b1-4)GlcNAc
# In short: as §1
# [17] = molecular target: Gal(b1-4)GlcNAc(b1-3)Gal(b1-4)GlcNAc(b1-2)[Gal(b1-4)GlcNAc(b1-3)Gal(b1-4)GlcNAc(b1-6)]Man(a1-6)[Gal(b1-4)GlcNAc(b1-3)Gal(b1-4)GlcNAc(b1-2)Man(a1-3)]Man(b1-4)GlcNAc(b1-4)[Fuc(a1-6)]GlcNAc
# In short: as §1
# [18] = molecular target: Gal(b1-4)GlcNAc(b1-3)Gal(b1-4)GlcNAc(b1-3)Gal(b1-4)GlcNAc
# In short: as §1
binder,measurement,setting,value
LF82 (Escherichia coli) (protein) ADWGPCRTASGDPFIFVTSFTKNIQNPTDNVTGQTYPDFYQWALGDKYSGVCECPSPNPTEARPTLYKTESTLAAGHNSTYFKITNNLEVSTRVYIANVGNVQVPFINKSNSQPGRECDQPTFGWTTGSKGQLSLYIAKPFVGEQNIPQTIIVSVFGTKKENVYSSVPISQVLLSGKVTVTQGCELAAGTSLDIDFGEYQAHDFKGRTGQPPQNVQKIQKELTFNCTNISDGVHIYLSLEGTPNAAYPSAISLGNADVGAVIEDGKGNILKPNDSNSLLEMNPGSLYEYVKRKVTTTITAYPVSTTGKLPAAGDYSGVATMHVELDGGGGGGGGGGATTDLGAKGTLKFSLKISQGHHHHHH,glycan array binding signal (z-score),[1],-1.08
same,glycan array binding signal (z-score),[2],0.149
same,glycan array binding signal (z-score),[3],-1.18
same,glycan array binding signal (z-score),[4],-0.9
same,glycan array binding signal (z-score),[5],-0.489
same,glycan array binding signal (z-score),[6],-0.357
same,glycan array binding signal (z-score),[7],0.999
same,glycan array binding signal (z-score),[8],-0.286
same,glycan array binding signal (z-score),[9],-0.501
same,glycan array binding signal (z-score),[10],-0.873
same,glycan array binding signal (z-score),[11],-0.236
same,glycan array binding signal (z-score),[12],-0.376
same,glycan array binding signal (z-score),[13],-1.12
same,glycan array binding signal (z-score),[14],0.758
same,glycan array binding signal (z-score),[15],1.5
same,glycan array binding signal (z-score),[16],-0.833
same,glycan array binding signal (z-score),[17],2.68
same,glycan array binding signal (z-score),[18],1.74

# 2 entries from above in another layout:
binder | measurement | setting | value
LF82 (Escherichia coli) (protein) ADWGPCRTASGDPFIFVTSFTKNIQNPTDNVTGQTYPDFYQWALGDKYSGVCECPSPNPTEARPTLYKTESTLAAGHNSTYFKITNNLEVSTRVYIANVGNVQVPFINKSNSQPGRECDQPTFGWTTGSKGQLSLYIAKPFVGEQNIPQTIIVSVFGTKKENVYSSVPISQVLLSGKVTVTQGCELAAGTSLDIDFGEYQAHDFKGRTGQPPQNVQKIQKELTFNCTNISDGVHIYLSLEGTPNAAYPSAISLGNADVGAVIEDGKGNILKPNDSNSLLEMNPGSLYEYVKRKVTTTITAYPVSTTGKLPAAGDYSGVATMHVELDGGGGGGGGGGATTDLGAKGTLKFSLKISQGHHHHHH | glycan array binding signal (z-score) | [2] | 0.149
same | glycan array binding signal (z-score) | [6] | -0.357
